According to patent publication US20250171511A1, “ANTIVIRAL PEPTIDES AND METHODS OF USE THEREOF” (Versitech Limited, priority 2021, published 2025):
At least one structure is not confirmed: it was looked up by name or label, or the drawing left a doubt.

Test system: SARS-CoV-2 (B.1. 617.2, Delta)
Assay: Post-exposure antiviral activity in hamsters, Delta
Assay type: in vivo, hamster
Conditions: 0.5 mg kg^−1, post exposure

**Q.** `CCC(CC)COC(=O)[C@H](C)N[P@](=O)(OC[C@H]1O[C@@](C#N)(c2ccc3c(N)ncnn23)[C@H](O)[C@@H]1O)Oc1ccccc1` [remdesivir, reference compound] was tested. Which “SARS-CoV-2 replication in hamsters” value did it give?
**A.** Its value is “comparable to the effect of remdesivir”.

**Q.** And the “syncytium formation and bronchial epithelial pathology in lungs” value?
**A.** Its value is “syncytia were still observed”.
